Assay results taken from paper PMC7738862.
Results are given in words; binding and its absence hold for the method and conditions named. Binding seen in cells or lysates may run through a third protein. Some results given as binding are weak or reduced against the parent protein; the word gives no strength.

Sequences of proteins named here, by UniProt entry; tags and fusion partners are left off.
UniProt O95863: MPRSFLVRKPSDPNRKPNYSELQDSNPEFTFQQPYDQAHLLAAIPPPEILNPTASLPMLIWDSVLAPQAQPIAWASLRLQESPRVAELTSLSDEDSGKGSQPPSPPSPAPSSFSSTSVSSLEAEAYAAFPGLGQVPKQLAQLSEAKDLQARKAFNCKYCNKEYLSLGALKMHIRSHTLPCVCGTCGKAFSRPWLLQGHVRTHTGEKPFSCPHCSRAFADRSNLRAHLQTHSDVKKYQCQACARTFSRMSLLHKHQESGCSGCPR

Target: T1, ubiquitin-specific peptidase 37 (USP37), endogenous (human (endogenous in SGC7901 and AGS)) (UniProt Q86T82)
T1 sequence: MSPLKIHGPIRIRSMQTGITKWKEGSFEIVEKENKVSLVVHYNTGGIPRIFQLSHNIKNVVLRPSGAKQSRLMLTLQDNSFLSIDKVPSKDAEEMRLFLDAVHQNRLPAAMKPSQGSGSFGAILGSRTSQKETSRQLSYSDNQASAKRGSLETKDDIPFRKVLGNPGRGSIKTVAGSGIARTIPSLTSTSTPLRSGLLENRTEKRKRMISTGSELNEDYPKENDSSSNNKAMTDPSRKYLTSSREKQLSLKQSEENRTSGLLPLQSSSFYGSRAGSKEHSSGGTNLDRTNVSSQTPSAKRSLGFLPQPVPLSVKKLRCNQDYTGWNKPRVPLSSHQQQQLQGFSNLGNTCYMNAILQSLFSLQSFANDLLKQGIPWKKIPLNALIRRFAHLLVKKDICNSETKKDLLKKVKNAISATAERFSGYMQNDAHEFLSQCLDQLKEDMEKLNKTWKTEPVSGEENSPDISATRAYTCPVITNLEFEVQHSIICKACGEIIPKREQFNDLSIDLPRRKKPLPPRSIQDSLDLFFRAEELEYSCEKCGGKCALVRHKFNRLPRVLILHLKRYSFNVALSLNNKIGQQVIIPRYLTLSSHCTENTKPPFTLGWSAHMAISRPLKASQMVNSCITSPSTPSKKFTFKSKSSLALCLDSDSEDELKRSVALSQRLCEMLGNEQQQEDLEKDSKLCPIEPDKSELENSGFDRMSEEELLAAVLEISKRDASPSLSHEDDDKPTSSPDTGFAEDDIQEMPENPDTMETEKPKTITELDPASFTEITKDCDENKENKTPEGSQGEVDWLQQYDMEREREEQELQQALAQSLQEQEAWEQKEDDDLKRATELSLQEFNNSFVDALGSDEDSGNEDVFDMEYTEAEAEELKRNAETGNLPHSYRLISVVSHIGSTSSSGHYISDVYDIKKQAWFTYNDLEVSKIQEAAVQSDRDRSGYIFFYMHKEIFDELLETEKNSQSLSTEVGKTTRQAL
Assay: co-IP; reciprocal co-immunoprecipitation and western blot of the endogenous proteins in SGC7901 and AGS cells

snail family transcriptional repressor 1 (Snail1), endogenous (from UniProt O95863 1-264)
binding: binds
